From the supplement of paper PMC10849652
The list shows a part of the results.

By UniProt entry, the sequences of proteins in these tests, tags left out. Where a name states a change or a piece, a line headed by the entry shows the natural chain unless it says otherwise.
UniProt Q13232: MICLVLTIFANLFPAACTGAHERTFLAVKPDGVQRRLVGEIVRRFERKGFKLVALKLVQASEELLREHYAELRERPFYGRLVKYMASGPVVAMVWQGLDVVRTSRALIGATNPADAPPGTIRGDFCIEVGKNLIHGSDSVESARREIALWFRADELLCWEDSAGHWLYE
UniProt P10588: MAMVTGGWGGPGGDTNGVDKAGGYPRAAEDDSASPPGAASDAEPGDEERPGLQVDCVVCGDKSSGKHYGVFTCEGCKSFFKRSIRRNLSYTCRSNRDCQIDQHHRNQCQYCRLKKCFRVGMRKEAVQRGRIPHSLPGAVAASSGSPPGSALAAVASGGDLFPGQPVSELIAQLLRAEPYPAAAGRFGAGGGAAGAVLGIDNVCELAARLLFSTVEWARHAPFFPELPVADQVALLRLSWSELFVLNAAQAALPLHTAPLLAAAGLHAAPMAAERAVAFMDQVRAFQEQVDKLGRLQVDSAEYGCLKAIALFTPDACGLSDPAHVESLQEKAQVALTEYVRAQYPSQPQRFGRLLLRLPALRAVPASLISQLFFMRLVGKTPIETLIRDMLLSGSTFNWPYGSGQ
UniProt O60551: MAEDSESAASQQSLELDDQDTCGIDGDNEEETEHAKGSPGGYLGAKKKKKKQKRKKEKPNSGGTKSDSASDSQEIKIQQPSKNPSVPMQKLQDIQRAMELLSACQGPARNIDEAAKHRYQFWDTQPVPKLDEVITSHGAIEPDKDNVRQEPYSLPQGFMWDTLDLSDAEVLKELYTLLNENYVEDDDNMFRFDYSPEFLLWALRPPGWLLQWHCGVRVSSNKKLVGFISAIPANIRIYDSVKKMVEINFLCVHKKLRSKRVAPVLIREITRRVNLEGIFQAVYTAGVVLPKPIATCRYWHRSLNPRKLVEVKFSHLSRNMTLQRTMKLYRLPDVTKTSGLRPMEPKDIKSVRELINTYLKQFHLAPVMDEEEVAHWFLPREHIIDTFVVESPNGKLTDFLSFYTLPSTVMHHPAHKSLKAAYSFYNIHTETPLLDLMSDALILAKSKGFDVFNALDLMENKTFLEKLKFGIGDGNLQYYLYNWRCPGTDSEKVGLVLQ
UniProt P19838: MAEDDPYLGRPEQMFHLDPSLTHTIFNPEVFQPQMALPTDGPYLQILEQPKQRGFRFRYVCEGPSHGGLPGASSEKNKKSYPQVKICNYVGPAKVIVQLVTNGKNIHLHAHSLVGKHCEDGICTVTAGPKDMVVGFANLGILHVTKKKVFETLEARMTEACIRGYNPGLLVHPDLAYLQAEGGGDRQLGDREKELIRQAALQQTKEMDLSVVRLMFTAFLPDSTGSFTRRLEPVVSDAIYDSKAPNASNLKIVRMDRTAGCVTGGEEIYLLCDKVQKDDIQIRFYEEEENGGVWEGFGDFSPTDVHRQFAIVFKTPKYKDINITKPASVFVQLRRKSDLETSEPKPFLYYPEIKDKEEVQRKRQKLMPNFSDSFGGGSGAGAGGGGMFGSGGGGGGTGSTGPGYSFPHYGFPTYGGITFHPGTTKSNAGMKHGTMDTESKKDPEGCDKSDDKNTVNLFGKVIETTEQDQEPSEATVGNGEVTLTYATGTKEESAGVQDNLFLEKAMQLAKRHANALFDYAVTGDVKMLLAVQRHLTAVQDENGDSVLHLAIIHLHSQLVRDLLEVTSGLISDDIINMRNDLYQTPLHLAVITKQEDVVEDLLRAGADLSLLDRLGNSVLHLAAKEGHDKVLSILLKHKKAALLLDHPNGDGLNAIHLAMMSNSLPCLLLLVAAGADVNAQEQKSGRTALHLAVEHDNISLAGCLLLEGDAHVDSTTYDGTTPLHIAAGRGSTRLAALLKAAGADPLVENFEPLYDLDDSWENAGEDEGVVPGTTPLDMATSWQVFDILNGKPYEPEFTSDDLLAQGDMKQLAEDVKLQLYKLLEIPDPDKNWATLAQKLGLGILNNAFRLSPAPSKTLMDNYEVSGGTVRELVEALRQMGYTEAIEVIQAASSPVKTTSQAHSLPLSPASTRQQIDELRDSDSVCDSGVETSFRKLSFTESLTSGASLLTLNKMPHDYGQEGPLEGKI
UniProt Q8N5F7: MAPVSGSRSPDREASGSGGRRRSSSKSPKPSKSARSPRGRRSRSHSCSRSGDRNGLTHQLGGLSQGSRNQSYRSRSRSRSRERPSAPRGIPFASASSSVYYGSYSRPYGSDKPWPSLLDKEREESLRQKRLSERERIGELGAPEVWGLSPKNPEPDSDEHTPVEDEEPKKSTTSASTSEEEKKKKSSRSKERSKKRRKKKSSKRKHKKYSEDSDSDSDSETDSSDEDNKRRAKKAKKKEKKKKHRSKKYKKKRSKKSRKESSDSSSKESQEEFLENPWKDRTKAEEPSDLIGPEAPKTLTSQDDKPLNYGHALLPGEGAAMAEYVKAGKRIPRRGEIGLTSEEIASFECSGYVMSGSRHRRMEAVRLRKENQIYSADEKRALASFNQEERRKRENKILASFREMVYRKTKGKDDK
UniProt Q12968: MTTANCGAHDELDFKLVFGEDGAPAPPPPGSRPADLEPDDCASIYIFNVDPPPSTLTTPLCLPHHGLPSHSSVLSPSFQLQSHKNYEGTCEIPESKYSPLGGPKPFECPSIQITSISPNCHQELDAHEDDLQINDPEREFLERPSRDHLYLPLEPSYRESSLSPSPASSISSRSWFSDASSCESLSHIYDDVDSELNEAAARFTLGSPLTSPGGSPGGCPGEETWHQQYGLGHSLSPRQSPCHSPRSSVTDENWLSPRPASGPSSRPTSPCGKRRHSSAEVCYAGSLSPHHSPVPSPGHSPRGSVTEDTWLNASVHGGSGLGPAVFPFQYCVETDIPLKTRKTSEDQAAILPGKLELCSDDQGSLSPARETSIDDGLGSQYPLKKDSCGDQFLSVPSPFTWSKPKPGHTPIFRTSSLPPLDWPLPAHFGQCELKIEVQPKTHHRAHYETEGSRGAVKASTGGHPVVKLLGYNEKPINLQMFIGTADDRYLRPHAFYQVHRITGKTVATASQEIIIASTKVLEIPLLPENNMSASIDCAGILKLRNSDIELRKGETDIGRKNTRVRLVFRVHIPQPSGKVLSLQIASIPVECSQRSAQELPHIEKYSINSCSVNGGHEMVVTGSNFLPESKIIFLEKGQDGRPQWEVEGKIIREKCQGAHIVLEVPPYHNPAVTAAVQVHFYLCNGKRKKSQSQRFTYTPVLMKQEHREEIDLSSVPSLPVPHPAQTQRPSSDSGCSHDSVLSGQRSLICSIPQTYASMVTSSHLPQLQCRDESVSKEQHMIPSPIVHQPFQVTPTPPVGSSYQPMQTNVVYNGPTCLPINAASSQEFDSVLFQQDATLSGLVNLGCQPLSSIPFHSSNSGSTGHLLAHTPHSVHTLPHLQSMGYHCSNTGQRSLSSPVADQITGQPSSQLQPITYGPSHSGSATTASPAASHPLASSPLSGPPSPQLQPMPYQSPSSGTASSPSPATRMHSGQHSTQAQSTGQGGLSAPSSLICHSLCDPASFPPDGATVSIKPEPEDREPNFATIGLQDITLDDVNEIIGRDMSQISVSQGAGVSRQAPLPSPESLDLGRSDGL
UniProt Q13952: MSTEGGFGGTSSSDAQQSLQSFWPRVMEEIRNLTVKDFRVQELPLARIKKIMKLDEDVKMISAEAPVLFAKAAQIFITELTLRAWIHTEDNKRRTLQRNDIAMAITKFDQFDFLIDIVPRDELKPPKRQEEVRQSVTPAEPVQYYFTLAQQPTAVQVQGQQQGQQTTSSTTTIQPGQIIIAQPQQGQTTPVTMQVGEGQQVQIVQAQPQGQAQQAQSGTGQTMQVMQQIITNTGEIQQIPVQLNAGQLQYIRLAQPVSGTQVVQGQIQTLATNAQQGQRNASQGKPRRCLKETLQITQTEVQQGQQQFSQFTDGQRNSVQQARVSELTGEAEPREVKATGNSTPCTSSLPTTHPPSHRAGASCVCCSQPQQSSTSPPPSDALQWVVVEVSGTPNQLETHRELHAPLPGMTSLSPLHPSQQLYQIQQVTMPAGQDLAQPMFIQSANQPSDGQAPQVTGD
UniProt O14524: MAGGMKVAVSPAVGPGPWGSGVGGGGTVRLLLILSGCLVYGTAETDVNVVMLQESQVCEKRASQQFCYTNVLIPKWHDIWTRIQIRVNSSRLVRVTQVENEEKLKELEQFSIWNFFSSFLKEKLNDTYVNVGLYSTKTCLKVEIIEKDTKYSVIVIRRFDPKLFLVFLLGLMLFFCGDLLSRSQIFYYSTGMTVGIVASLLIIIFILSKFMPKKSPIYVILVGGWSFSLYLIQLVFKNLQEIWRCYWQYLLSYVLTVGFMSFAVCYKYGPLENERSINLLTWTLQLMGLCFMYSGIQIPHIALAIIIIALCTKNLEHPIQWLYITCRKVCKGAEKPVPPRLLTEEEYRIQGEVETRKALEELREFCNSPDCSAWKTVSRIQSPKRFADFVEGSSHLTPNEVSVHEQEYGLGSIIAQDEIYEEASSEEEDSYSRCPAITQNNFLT
UniProt P46087: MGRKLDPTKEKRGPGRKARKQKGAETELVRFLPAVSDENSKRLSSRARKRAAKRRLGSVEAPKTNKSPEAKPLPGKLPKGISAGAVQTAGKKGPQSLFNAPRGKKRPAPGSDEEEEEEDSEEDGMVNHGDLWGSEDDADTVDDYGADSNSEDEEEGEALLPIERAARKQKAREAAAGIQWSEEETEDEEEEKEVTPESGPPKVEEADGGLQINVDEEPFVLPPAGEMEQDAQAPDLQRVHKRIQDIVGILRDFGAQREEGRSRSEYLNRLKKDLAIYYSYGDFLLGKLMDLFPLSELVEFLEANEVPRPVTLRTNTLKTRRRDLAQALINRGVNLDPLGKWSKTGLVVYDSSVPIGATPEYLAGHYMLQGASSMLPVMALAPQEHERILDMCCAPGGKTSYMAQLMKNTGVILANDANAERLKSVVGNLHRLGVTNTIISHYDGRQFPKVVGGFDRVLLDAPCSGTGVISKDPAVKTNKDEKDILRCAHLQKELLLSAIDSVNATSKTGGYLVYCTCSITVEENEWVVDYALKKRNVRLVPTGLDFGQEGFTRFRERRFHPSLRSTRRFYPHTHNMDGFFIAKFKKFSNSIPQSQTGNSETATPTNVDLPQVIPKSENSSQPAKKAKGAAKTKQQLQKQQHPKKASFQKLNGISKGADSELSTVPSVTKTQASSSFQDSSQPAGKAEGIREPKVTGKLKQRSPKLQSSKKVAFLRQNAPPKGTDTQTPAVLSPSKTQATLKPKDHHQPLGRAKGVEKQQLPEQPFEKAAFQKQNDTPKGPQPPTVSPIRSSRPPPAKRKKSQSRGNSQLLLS

How the values were obtained:
Assay in all cases: log2 fold change, soluble protein after heating vs DMSO (PISA); higher = thermal stabilisation; K562 cells, 10 uM, 30 min; active = over 0.2 and 3.5 SD of the protein, either way, in both replicates (recomputed)
[1] = compound: C1=CC=C(C=C1)[C@H](COC2=CC3=C(C=C2)NC(=O)N3)NC(=O)C4=CC=CN(C4=O)CC5=CC(=C(C=C5)F)F
In short: (§1)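 K562 cells at 2×10^6 cells/mL were exposed to 10 μM compound for 30 min, then aliquots were heated for 3 min across 48°C-58°C, pooled, and extracted in PBS containing 0.5% NP-40 at 4°C. The supernatant after 21,000xg for 90 min was taken as soluble protein and measured by TMTpro 16plex LC-MS/MS with channel sums equalised. Thermal stability is reported relative to control samples, with values from duplicates. Fold changes are given on a log2 scale.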

[2] = compound: CC1=C(SC2=C1C(=N[C@H](C3=NN=C(N32)C)CC(=O)N)C4=CC=C(C=C4)Cl)C
In short: as §1

[3] = compound: CC1=C2C(=CC=C1)N=C(N(C2=O)C3=CC=CC=C3C)CN4C=NC5=C(N=CN=C54)N
In short: as §1

[4] = compound: Cc1sc2c(c1C)C(c1ccc(Cl)cc1)=N[C@@H](CC(=O)OC(C)(C)C)c1nnc(C)n1-2
In short: as §1

[5] = compound: c1ccc([C@@H]2C[C@H]2NC2CCNCC2)cc1
In short: as §1

Measured: log2 fold change

NME3 (UniProt Q13232)
inactive: [1] 0.001 | [2] 0.003 | [3] 0.036 | [4] 0.022 | [5] 0.013

NR2F6 (UniProt P10588)
inactive: [1] -0.032 | [2] 0.025 | [3] 0.006 | [4] 0.084 | [5] -0.067

NMT2 (UniProt O60551)
inactive: [1] -0.045 | [2] 0.053 | [3] 0.092 | [4] 0.026 | [5] -0.107

NFKB1 isoform 2 (UniProt P19838)
inactive: [1] -0.253 | [2] 0.104 | [3] 0.048 | [4] 0.038 | [5] -0.176

NKAP (UniProt Q8N5F7)
inactive: [1] -0.013 | [2] 0.148 | [3] 0.049 | [4] 0.078 | [5] 0.171

NFATC3 (UniProt Q12968)
inactive: [1] -0.03 | [2] 0.081 | [3] 0.12 | [4] 0.16 | [5] 0.065

NFYC (UniProt Q13952)
inactive: [1] 0.002 | [2] 0.063 | [3] 0.036 | [4] 0.014 | [5] -0.014

NEMP1 (UniProt O14524)
inactive: [1] 0.015 | [2] -0.003 | [3] 0.036 | [4] 0.048 | [5] -0.018

NOP2 isoform 4 (UniProt P46087)
inactive: [1] 0.184 | [2] -0.494 | [3] -0.694 | [4] 0.409 | [5] -0.009
